# Reference: PubChem BioAssay AID743255 (National Center for Advancing Translational Sciences (NCATS), 2014)
# Amino acid sequences for entries named in this document (tags omitted). A change or cut given only in a name is not applied to a line headed by its entry.
# UniProt O94782: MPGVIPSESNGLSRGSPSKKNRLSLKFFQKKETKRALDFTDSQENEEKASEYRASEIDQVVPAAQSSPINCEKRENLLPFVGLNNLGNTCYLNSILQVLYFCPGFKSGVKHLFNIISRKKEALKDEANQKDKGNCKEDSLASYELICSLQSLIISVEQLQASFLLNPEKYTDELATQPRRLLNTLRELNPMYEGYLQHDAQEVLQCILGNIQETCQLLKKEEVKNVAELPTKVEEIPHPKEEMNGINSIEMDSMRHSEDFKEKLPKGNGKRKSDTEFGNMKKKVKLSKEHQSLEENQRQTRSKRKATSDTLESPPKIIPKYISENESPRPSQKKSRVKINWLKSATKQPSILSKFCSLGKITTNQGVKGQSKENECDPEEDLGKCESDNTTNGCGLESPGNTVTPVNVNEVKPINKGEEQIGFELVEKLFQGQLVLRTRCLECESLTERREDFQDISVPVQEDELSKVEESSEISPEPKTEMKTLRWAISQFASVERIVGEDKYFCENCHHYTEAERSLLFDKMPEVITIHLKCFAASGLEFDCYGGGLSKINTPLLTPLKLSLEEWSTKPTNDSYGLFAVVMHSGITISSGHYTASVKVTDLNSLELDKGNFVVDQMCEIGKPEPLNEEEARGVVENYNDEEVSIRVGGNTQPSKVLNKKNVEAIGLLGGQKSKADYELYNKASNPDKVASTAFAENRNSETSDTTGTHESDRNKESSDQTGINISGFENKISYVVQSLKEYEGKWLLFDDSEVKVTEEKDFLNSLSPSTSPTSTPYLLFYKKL
# In all, about 390,000 compounds went through this assay and about 910 (0.23%) were called active. The inconclusive results got no clear call from the source; some entries with a clear call stand among them for comparison. Calls come from the whole dose curve; as a rule, active = well fitted inhibition curve with a large enough effect; inconclusive = small, poorly fitted or top-dose-only effect; inactive = no such curve, though single readings can be large or run the other way. A potency beside an inconclusive call is a rough fit, not a confirmed value.
# Molecular target: Ubiquitin carboxyl-terminal hydrolase 1 (Homo sapiens) (UniProt O94782)
# Test: Inhibitors of USP1/UAF1: Primary Screen; note: nearly all actives have a fitted effect of over 60% in size
# Conditions: recombinant USP1/UAF1, Ub-Rhodamine cleavage fluorescence; activity change, negative = inhibition: at 57.1 µM (top of the series)
# How it was run: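 High-throughput fluorogenic screen: 1nM USP1/UAF1 complex, Ub-Rho substrate 150nM final, 50mM HEPES pH 7.8 with 0.5mM EDTA, 0.1 mg/ml BSA, 1mM TCEP and 0.01% Tween-20.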
# % is set by controls: 0 for no effect and ±100 for the full control effect; potency is the fitted concentration of half-maximal effect.
SMILES,Potency,"activity change, negative = inhibition"
CC(Nc1nc(N2CCNCC2)nc2ccccc12)c1ccccc1 (configuration not stated),inactive,
CC(Oc1ccc(Cl)cc1)C(=O)Nc1sccc1C(N)=O (configuration not stated),"inconclusive: 8.91 µM [inhibitor, full curve, poor fit]",
Cc1sc2c(c1C)c(=O)n(Cc1ccccc1)c(=O)n2CC(=O)Nc1cccc(Cl)c1,"inconclusive: 7.08 µM [inhibitor, partial curve]",
CCOC(=O)c1cccc(NC(=O)Nc2cc(OC)ccc2OC)c1,"inconclusive: 31.6 µM [inhibitor, partial curve]",
c1ccc(-c2nc(NCc3ccco3)c3oc4ccccc4c3n2)cc1,inactive,
Cc1[nH]nc(-c2ccc(O)cc2O)c1Oc1ccccc1,"inconclusive: 6.31 µM [inhibitor, single point]",
O=C(c1ccncc1)N1CCN(S(=O)(=O)c2ccccc2F)CC1,inactive,
CCc1cc2c(Sc3nc4ccccc4s3)ncnc2s1,inactive,
COc1ccc(CCNC(=O)CCCn2c(=O)c3cccn3c3ccc(F)cc32)cc1OC,inactive,
COc1ccc(OCC(=O)N2c3ccccc3CC2C)c([N+](=O)[O-])c1 (configuration not stated),"inconclusive: 8.91 µM [inhibitor, single point]",
CCS(=O)(=O)c1nc(S(=O)(=O)c2ccc(C)cc2)c(NCc2ccccc2Cl)s1,inactive,
CCN(CC)C(=O)C1CCCc2c1[nH]c1ccc(Cl)cc21 (configuration not stated),"inconclusive: 2 µM [inhibitor, full curve]",
COc1ccccc1NC(=O)c1c(C)oc2c1CCCC2,"inconclusive: 39.8 µM [inhibitor, partial curve]",
O=c1oc(CCCO)cc2ccc(/C=C/c3cccc([N+](=O)[O-])c3)cc12,"inconclusive: 2.51 µM [inhibitor, full curve]",
CSc1nnc(SCc2nc3sc(C(=O)O)c(C)c3c(=O)[nH]2)s1,"inconclusive: 17.8 µM [inhibitor, partial curve, poor fit]",
O=Cc1cc(N=Nc2ccccc2Cl)ccc1O,"inconclusive: 44.7 µM [inhibitor, partial curve, poor fit]",
CCNC(=O)CC1S/C(=N/N=C(\C)c2ccccc2)NC1=O (configuration not stated),inactive,
NS(=O)(=O)c1ccc(NC2=CC(=O)C(=O)c3ccccc32)cc1,active: 8.91 µM,
CCc1cccc(NC(=O)c2coc(=O)c3ccccc23)c1,inactive,
COc1ccc(C(=O)N2CCN=C2SCc2cccnc2)cc1OC,"inconclusive: 2 µM [inhibitor, full curve, poor fit]",
COc1cccc(N2CCN(C(=O)CCCCCNc3nc(=S)[nH]c4ccccc34)CC2)c1,"inconclusive: 31.6 µM [inhibitor, partial curve]",
Cc1ccc(NC(=O)Cc2c[nH]c3ccccc23)cc1S(=O)(=O)N1CCCCCC1,inactive,
Cc1cc(O)ccc1Nc1nc(-c2cccs2)cs1,"inconclusive: 44.7 µM [inhibitor, partial curve]",

SMILES,Potency,"activity change, negative = inhibition"
CCn1cc(C(=O)NCCN(C)C)c(=O)c2cc(F)c(N3CCN(C)CC3)cc21,,inconclusive: -1.2% [inhibitor]
CC1(OC(=O)C2CCCC2)C(=O)C=C2C=C(c3ccsc3)N(CC3CC3)C=C2C1=O (configuration not stated),"inconclusive: 15.8 µM [inhibitor, partial curve]",
Cc1cc(C(=O)CSc2nnc(-c3cccc(F)c3)n2N)c(C)n1Cc1ccc2c(c1)OCO2,"inconclusive: 39.8 µM [inhibitor, partial curve, poor fit]",
Oc1cccc(NC(=S)N=Nc2c(O)[nH]c3ccccc23)c1,inactive,
CC(C)[C@H](NC(=O)c1ccccc1F)C(=O)NCCc1ccccc1,"inconclusive: 0.631 µM [inhibitor, full curve, poor fit]",
Cc1ccn(S(=O)(=O)c2ccc3oc(=O)ccc3c2)n1,"inconclusive: 31.6 µM [inhibitor, partial curve]",
CCOc1ccccc1Nc1ccc2cc(S(=O)(=O)N3CCCCC3)ccc2n1,inactive,
COC(=O)c1ccccc1NC(=O)CCCn1nc([N+](=O)[O-])c(Br)c1C,inactive,
CC(C)C[C@@H](CNCC(=O)[C@H](Cc1ccccc1)NC(=O)c1[nH]cnc1C(=O)N[C@H](CN)CC(C)C)NC(=O)c1nc[nH]c1C(=O)N[C@@H](CC(=O)O)C(=O)O,"inconclusive: 158 µM [inhibitor, partial curve, poor fit]",
Clc1cccc(NCc2nnc(SCc3ccc(Cl)cc3Cl)o2)c1,"inconclusive: 35.5 µM [inhibitor, partial curve, poor fit]",
CCOc1ccc2nc(NCCCNS(=O)(=O)c3ccc(F)cc3)c(C#N)cc2c1,"inconclusive: 25.1 µM [inhibitor, partial curve, poor fit]",
N#Cc1ccc2c(c1)nnn2-c1ccccc1,"inconclusive: 2.82 µM [inhibitor, full curve]",
Cc1cc(-c2ccccc2)nc(N/N=C/c2ccc(O)cc2O)n1,inactive,
CCOc1ccc(CCNC(=O)c2cnc3c(-c4ccccc4)c(C)nn3c2C)cc1OCC,"inconclusive: 35.5 µM [inhibitor, partial curve]",
Cc1nc2ccc(Cl)cc2nc(C)/c1=N\O,"inconclusive: 25.1 µM [inhibitor, single point]",
Cc1cccc(-c2nnc(SCCC(=O)O)o2)c1,"inconclusive: 39.8 µM [inhibitor, partial curve, poor fit]",
O=C(N/N=C/C(Br)=C/c1ccccc1)c1cccs1,"inconclusive: 44.7 µM [inhibitor, partial curve, poor fit]",
Cc1noc(C)c1COC(=O)CCc1nc2ccccc2s1,inactive,
CCOC(=O)c1c2c(n(-c3ccc(OC)cc3)c1C)C(=O)C(=O)c1ccccc1-2,active: 1.78 µM,
COc1ccc(C(=O)Nc2ccnn2C2CCN(Cc3cnn(C)c3)CC2)cc1,inactive,
c1ccc(C2CC(c3ccccc3)n3ncnc3N2)cc1 (configuration not stated),"inconclusive: 0.251 µM [inhibitor, full curve, poor fit]",
O=C(Nc1nc(-c2ccc(Cl)s2)cs1)c1ccco1,inactive,
CCC(CO)Oc1cc(NCc2cccc(C(F)(F)F)c2)c2ncn(C(C)C)c2c1 (configuration not stated),"inconclusive: 63.1 µM [inhibitor, partial curve, poor fit]",

# In another format: four of the compounds above.
SMILES | Potency | activity change, negative = inhibition
Cc1cc(C(=O)CSc2nnc(-c3cccc(F)c3)n2N)c(C)n1Cc1ccc2c(c1)OCO2 | inconclusive: 39.8 µM [inhibitor, partial curve, poor fit] | 
Cc1noc(C)c1COC(=O)CCc1nc2ccccc2s1 | inactive | 
c1ccc(C2CC(c3ccccc3)n3ncnc3N2)cc1 (configuration not stated) | inconclusive: 0.251 µM [inhibitor, full curve, poor fit] | 
CCC(CO)Oc1cc(NCc2cccc(C(F)(F)F)c2)c2ncn(C(C)C)c2c1 (configuration not stated) | inconclusive: 63.1 µM [inhibitor, partial curve, poor fit] | 

# (next part)

SMILES,Potency,"activity change, negative = inhibition"
COc1ccc(CN2C(=O)c3ccccc3C(/C=N/OCc3ccc(Cl)cc3)C2=O)cc1 (configuration not stated),"inconclusive: 28.2 µM [inhibitor, single point]",
C#CCOc1ccc(/C=C2/C(=O)NN(c3ccc(F)cc3)C2=O)cc1OC,"inconclusive: 50.1 µM [inhibitor, partial curve, poor fit]",
COc1cc(C2CC(=O)Nc3cc4c(cc32)OCCO4)cc(OC)c1O (configuration not stated),inactive,
Cc1cccc(NC(=O)CSc2nc3c(sc4ccccc43)c(=O)n2CCCC(=O)NC2CCCC2)c1,inactive,
Cc1cccc(C(=O)Nc2ccc(S(=O)(=O)N(Cc3ccccc3)c3ccccc3)cc2)c1,"inconclusive: 17.8 µM [inhibitor, partial curve, poor fit]",
Cc1cc(C)c(S(=O)(=O)Nc2ccc(-c3ccc(N4CCCCCC4)nn3)cc2)cc1C,"inconclusive: 0.251 µM [inhibitor, full curve, poor fit]",
CCN(CC)c1ccc2cc(-c3nc(-c4ccccc4F)no3)c(=O)oc2c1,"inconclusive: 3.16 µM [inhibitor, full curve, poor fit]",
COc1ccc(CN2C(=O)C(CC(=O)NC(c3ccccc3)c3ccccc3)CC(C(=O)N(C(C)C)C(C)C)=C2C)cc1 (configuration not stated),"inconclusive: 0.282 µM [inhibitor, full curve]",
CCOc1ccc(Br)cc1S(=O)(=O)Nc1ccc(S(=O)(=O)Nc2cc(C)on2)cc1,"inconclusive: 0.316 µM [inhibitor, full curve, poor fit]",
CC1(OC(=O)CCc2ccccc2)C(=O)C=C2C=C(c3ccc(C#N)cc3)N(C3CCCC3)C=C2C1=O (configuration not stated),"inconclusive: 8.91 µM [inhibitor, partial curve]",
COc1ccccc1C(=O)NC(=Nc1nc2ccccc2o1)NC(=O)c1ccccc1OC,,inconclusive: -12.9% [inhibitor]
C#CCOCCOCCOCCNc1nc(N2CCN(C(=O)CCCCCCCCCCNC(=O)[C@H](CCCCN)n3cc(C)nn3)CC2)nc(N2CCN(C(=O)CCCCCCCCCCNC(=O)[C@H](CCCCN)n3cc(CCCC(=O)O)nn3)CC2)n1,"inconclusive: 5.01 µM [inhibitor, partial curve]",
Cc1nc2ccn(Cc3cccnc3)c(=O)c2cc1C(=O)Nc1ccc(F)cc1F,"inconclusive: 2.82 µM [inhibitor, partial curve]",
Cc1ccc(S(=O)(=O)NC(=O)c2cc(C)n(CCCN3CCOCC3)c2C)cc1,inactive,
Cc1ccc(CN2CCC(CNS(=O)(=O)c3ccc(-c4ccc(=O)[nH]n4)s3)CC2)cc1,inactive,
O=C1C(Cl)=C(NCC2CCCO2)C(=O)N1CCc1ccccc1 (configuration not stated),inactive,
O=C(Nc1cccc(C(F)(F)F)c1)c1ccc2snnc2c1,inactive,
COC(=O)Cc1c(C)c2ccc(OCC(=O)N(C)C)cc2oc1=O,inactive,
CN(C1=NS(=O)(=O)c2ccccc21)c1ccc(OC(=O)c2ccccc2F)cc1,"inconclusive: 0.251 µM [inhibitor, full curve, poor fit]",
Cc1ccccc1-n1c(Cn2c(=O)sc3ccccc32)nnc1SCC(=O)Nc1nccs1,"inconclusive: 39.8 µM [inhibitor, partial curve, poor fit]",
COc1ccc(CNC(=O)c2ccc3nc(C(C)C)oc3c2)cc1OC,"inconclusive: 44.7 µM [inhibitor, partial curve]",
